Source: patent US20240343824A1 (MERUS N V, published 2024)
These are yes or no findings as the source states them, for the method shown. Some entries that bind do so weakly or less than the wild type. Sequences can lack the tags named with a protein.

Key:
[1] = target: T1, full length human LGR5-FLAG-HA on Freestyle 293F or CHO-K1 cells (human) (UniProt O75473); assay: competition FACS on CHO-K1 cells over-expressing human LGR5; competitor PG7711p02 (OMP88R20 copy) fixed at 50 ng/ml, detected with anti-human IgG PE; MFI normalised to no R-spondin1
T1 sequence: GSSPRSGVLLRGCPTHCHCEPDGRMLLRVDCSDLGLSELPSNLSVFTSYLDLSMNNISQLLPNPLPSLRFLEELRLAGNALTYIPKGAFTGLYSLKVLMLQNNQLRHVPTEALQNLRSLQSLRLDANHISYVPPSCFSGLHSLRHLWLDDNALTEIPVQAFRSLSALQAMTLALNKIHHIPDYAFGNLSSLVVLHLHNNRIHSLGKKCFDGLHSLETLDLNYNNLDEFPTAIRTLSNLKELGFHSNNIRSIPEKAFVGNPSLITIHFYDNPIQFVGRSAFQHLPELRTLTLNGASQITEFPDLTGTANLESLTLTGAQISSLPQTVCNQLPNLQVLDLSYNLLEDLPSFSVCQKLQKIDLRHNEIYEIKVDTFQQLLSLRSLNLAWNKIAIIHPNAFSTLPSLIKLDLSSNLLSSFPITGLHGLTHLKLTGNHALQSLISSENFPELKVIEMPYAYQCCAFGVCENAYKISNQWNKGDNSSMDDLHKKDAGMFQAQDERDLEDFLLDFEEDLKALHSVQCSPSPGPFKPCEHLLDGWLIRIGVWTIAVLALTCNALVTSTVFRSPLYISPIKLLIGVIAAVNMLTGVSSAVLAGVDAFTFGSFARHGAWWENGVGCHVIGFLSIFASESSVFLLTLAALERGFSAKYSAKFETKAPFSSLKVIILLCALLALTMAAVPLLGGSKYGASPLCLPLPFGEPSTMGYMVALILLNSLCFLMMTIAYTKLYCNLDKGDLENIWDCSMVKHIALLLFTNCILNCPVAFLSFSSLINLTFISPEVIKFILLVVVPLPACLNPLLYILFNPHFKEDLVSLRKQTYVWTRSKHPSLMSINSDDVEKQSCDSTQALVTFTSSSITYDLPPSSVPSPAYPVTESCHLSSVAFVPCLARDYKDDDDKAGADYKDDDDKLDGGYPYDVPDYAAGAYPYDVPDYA

[2] = target: T1, full length human LGR5-FLAG-HA on Freestyle 293F or CHO-K1 cells (human); assay: competition FACS on CHO-K1 cells over-expressing human LGR5; PG7711 fixed at 50 ng/ml, bispecifics at 100 ng/ml, detected with PE-labelled anti-human IgG; MFI normalised to no R-spondin1 [left panel (RSPO-1 competition]

binding [1]: binds
binding [2]: binds
B1: R-spondin1 (ligand, UniProt Q2MKA7 21-263, looked up)
chain: SRGIKGKRQRRISAEGSQACAKGCELCSEVNGCLKCSPKLFILLERNDIRQVGVCLPSCPPGYFDARNPDMNKCIKCKIEHCEACFSHNFCTKCKEGLYLHKGRCYPACPEGSSAANGTMECSSPAQCEMSEWSPWGPCSKKQQLCGFRRGSEERTRRVLHAPVGDHAACSDTKETRRCTVRRVPCPEGQKRRKGGQGRRENANRNLARKESKEAGAGSRRRKGQQQQQQQGTVGPLTSAGPA
notes: also called RSPO1; R-spondin1 (R&D Systems, cat. nr. 4645-RF/CF)
